Source: patent publication US20250360146A1, “COMPOSITIONS FOR SEBUM CONTROL” (Dyson Operations Pte. Ltd., priority 2022, published 2025)
At least one read-out could not be matched to a standard name with certainty.

System: Primary sebocytes
Assay: In-vitro lipid reduction in primary sebocytes (AdipoRed dye, flow cytometry mean fluorescence intensity)
Type: cell-based, human
Conditions: OA 1.25 μM, EGCG 50 μM, other compounds 10 μM
Method: Primary sebocytes were derived from the forehead of a person. The same cell line was used in all experiments.
Flow cytometry experiments were conducted on the BD LSR Fortessa X-20 as follows: Sebocytes stained with a lipid dye (AdipoRed™) were first analyzed according to size and granularity with only single cells selected for AdipoRed™ signal intensity measurement. The AdipoRed™ signal was measured using the 488 nm FITC blue laser and the value for the average fluorescence intensity of 10,000 cells obtained. The average fluorescence intensity is a measure of the average lipid quantity in 10,000 sebocytes. Cells treated with compositions of the invention were compared to vehicle-treated cells to determine the percentage of lipid reduction. […]
Primary sebocytes were seeded at […] per well (396 μL) in culture media. […] Mean fluorescence intensity of the lipid signal can be obtained from the flow cytometer plot which are used to determine the inhibitory effect of the compounds on the sebocytes.
The lipid reduction effects of the compositions of the invention were measured against DMSO as a negative control, and against the known lipid-reducing compound epigallocatechin gallate (EGCG) as a positive control. […]

Compound | Percentage Reduction in Mean Fluorescence Intensity vs DMSO (Table 3, entries marked * (different set of experiments), 3 days) | Percentage Reduction in Mean Fluorescence Intensity vs DMSO (Table 3, first set of experiments, primary sebocytes incubated 3 days)
O=C(O)c1ccc(O)c(O)c1 [protocatechuic acid] | 8.1 ± 0.8% | –
miquelianin | – | 25.0 ± 07.1%
